According to PMC13284301:
No constants are given. Whether binding was seen depends on the method and setting. In cells and extracts the contact can be indirect. Some results given as binding are weak or reduced against the parent protein; the word gives no strength. Where a sequence is shown, tags or fusion partners need not be part of it.

Sequences of proteins named here, by UniProt entry; tags and fusion partners are left off. A change or cut given only in a name is not applied to a line headed by its entry.
UniProt P41376: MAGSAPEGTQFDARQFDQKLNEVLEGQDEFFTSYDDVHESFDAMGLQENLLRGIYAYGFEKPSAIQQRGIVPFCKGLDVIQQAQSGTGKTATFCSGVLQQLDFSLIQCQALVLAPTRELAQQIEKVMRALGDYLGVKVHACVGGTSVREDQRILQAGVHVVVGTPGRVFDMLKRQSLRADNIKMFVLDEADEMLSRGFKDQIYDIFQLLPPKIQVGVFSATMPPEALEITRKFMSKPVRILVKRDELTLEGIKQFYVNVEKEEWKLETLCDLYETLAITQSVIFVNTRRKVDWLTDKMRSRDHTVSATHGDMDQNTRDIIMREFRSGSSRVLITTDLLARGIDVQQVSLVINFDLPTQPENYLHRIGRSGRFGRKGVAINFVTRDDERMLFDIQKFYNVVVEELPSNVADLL
UniProt P41377: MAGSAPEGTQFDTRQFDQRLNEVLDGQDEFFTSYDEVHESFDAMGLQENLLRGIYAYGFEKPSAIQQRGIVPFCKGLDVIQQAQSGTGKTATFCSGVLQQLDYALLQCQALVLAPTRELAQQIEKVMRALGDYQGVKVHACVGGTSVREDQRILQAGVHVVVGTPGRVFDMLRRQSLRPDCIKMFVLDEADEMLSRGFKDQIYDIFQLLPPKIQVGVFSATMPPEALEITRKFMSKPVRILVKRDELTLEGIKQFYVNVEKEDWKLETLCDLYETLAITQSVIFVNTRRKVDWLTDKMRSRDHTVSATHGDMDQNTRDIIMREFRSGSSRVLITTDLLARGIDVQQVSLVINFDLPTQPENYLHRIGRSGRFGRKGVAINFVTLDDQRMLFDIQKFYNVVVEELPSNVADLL

T1: SMG7-YFP (Arabidopsis thaliana) (UniProt A9QM73)
T1 sequence: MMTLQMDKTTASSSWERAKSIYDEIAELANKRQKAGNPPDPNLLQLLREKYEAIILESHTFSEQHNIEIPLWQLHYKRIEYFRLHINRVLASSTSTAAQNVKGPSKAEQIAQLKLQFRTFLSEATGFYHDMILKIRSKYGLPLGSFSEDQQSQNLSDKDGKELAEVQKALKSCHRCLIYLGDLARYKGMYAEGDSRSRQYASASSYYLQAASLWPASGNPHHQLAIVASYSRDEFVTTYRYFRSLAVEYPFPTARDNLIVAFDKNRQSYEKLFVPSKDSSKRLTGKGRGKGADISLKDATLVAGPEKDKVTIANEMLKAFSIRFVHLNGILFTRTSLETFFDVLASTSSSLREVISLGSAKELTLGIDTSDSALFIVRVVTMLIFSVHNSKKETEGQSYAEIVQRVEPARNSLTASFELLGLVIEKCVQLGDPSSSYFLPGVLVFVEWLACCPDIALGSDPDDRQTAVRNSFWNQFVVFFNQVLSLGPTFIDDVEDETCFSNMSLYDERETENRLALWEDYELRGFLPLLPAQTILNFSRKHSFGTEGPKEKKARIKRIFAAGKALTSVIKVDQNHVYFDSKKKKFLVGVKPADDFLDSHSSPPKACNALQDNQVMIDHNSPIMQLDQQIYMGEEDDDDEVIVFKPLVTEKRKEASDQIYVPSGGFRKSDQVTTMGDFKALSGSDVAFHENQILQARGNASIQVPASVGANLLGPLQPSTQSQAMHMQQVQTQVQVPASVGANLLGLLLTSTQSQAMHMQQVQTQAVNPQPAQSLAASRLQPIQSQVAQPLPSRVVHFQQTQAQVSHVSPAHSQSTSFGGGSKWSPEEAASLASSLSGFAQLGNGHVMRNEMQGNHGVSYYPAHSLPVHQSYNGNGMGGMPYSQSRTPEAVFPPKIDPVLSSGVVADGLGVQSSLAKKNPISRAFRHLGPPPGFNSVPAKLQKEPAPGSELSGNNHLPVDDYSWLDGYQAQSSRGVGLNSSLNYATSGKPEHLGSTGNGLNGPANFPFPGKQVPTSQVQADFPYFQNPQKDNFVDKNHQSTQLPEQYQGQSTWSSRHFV

T2: YFP-SMG7^(K77E R185E) (Arabidopsis thaliana) (UniProt A9QM73)
T2 sequence: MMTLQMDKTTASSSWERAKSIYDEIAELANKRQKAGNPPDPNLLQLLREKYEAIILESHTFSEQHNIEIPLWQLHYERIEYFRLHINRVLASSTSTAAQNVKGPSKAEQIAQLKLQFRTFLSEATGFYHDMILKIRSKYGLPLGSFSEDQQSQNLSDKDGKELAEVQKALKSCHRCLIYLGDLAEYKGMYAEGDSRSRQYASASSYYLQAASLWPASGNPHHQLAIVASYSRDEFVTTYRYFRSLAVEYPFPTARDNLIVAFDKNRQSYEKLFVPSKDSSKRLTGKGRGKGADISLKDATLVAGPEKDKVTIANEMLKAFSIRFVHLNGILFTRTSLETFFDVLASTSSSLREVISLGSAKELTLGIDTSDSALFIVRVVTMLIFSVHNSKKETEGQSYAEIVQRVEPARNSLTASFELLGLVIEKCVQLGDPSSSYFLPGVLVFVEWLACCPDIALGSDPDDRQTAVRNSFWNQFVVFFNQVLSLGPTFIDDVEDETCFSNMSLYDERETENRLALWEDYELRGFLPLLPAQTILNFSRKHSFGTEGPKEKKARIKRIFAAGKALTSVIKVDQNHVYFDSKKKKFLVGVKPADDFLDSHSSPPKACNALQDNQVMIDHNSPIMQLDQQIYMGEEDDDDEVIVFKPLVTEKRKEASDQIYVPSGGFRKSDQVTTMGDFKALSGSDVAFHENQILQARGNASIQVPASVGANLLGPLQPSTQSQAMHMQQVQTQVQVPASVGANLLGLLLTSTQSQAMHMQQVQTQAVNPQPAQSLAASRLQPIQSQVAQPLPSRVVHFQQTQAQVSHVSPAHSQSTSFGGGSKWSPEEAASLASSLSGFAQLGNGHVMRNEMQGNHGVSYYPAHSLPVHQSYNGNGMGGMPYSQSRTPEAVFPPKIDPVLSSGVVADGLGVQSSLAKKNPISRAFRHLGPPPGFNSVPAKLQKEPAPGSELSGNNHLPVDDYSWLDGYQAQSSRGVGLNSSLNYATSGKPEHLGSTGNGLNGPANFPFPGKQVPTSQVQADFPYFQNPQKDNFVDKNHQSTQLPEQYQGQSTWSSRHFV

T3: nYFP-SMG7 (Arabidopsis thaliana) (UniProt A9QM73)
T3 sequence: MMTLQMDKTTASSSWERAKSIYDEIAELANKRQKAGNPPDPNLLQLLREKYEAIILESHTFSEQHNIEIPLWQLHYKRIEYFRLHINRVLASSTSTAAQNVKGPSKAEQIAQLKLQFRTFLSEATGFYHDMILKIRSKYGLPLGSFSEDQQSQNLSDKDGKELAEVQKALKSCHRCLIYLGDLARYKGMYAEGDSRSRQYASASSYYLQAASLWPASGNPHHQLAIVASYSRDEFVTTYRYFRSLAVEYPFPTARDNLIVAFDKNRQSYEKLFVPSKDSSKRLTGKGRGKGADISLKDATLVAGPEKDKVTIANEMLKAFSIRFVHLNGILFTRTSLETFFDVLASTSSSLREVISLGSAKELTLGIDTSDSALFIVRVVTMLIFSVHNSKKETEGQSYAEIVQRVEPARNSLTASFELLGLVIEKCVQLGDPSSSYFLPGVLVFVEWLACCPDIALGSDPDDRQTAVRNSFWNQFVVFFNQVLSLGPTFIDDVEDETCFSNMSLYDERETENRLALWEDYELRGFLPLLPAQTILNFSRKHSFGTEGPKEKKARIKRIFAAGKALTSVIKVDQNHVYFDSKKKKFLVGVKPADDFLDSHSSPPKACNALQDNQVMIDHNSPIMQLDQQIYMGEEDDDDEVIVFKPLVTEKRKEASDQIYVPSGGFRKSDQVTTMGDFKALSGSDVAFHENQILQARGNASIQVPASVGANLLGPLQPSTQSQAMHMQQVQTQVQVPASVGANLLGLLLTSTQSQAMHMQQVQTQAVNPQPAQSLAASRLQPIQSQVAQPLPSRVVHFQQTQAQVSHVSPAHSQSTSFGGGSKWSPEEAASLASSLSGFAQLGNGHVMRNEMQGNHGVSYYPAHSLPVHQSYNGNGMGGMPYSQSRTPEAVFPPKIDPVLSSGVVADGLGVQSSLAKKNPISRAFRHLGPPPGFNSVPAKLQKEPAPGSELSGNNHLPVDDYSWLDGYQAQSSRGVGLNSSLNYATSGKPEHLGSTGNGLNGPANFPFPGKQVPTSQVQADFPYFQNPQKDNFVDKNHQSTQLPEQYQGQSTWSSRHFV

B1: SMG7-MYC (protein, UniProt A9QM73 1-1059)
chain: MMTLQMDKTTASSSWERAKSIYDEIAELANKRQKAGNPPDPNLLQLLREKYEAIILESHTFSEQHNIEIPLWQLHYKRIEYFRLHINRVLASSTSTAAQNVKGPSKAEQIAQLKLQFRTFLSEATGFYHDMILKIRSKYGLPLGSFSEDQQSQNLSDKDGKELAEVQKALKSCHRCLIYLGDLARYKGMYAEGDSRSRQYASASSYYLQAASLWPASGNPHHQLAIVASYSRDEFVTTYRYFRSLAVEYPFPTARDNLIVAFDKNRQSYEKLFVPSKDSSKRLTGKGRGKGADISLKDATLVAGPEKDKVTIANEMLKAFSIRFVHLNGILFTRTSLETFFDVLASTSSSLREVISLGSAKELTLGIDTSDSALFIVRVVTMLIFSVHNSKKETEGQSYAEIVQRVEPARNSLTASFELLGLVIEKCVQLGDPSSSYFLPGVLVFVEWLACCPDIALGSDPDDRQTAVRNSFWNQFVVFFNQVLSLGPTFIDDVEDETCFSNMSLYDERETENRLALWEDYELRGFLPLLPAQTILNFSRKHSFGTEGPKEKKARIKRIFAAGKALTSVIKVDQNHVYFDSKKKKFLVGVKPADDFLDSHSSPPKACNALQDNQVMIDHNSPIMQLDQQIYMGEEDDDDEVIVFKPLVTEKRKEASDQIYVPSGGFRKSDQVTTMGDFKALSGSDVAFHENQILQARGNASIQVPASVGANLLGPLQPSTQSQAMHMQQVQTQVQVPASVGANLLGLLLTSTQSQAMHMQQVQTQAVNPQPAQSLAASRLQPIQSQVAQPLPSRVVHFQQTQAQVSHVSPAHSQSTSFGGGSKWSPEEAASLASSLSGFAQLGNGHVMRNEMQGNHGVSYYPAHSLPVHQSYNGNGMGGMPYSQSRTPEAVFPPKIDPVLSSGVVADGLGVQSSLAKKNPISRAFRHLGPPPGFNSVPAKLQKEPAPGSELSGNNHLPVDDYSWLDGYQAQSSRGVGLNSSLNYATSGKPEHLGSTGNGLNGPANFPFPGKQVPTSQVQADFPYFQNPQKDNFVDKNHQSTQLPEQYQGQSTWSSRHFV
B2: eIF4B1-cYFP (protein, UniProt Q9LIN5 1-532)
chain: MSKAWGGIGIGAWADEAERADEEQAAEATAATADTQSFPSLREAAAATATSGKSRKMKKMSLSEFTTGAYTAPGGRNSVGLTQQEILQLPTGPRQRSEEEMQPGRLGGGFSSYGGRSGGRIGRDRDDSDGSWSGGGGGGGRRPYGGGFDDDRRGNQSRVSDFPQPSRADEVDDWGKEKKPLPSFDQGRQGRYSGDGGGFGGGGSGFGGGGGGGGGGLSRADDVDNWGAGKRQAPVRSSTFGSSFGDSGQEERRRLVLEPRKVESGGSETPPVVEKTSKPNPFGAARPREDVLAEKGLDWKKIDSEIEAKKGSSQTSRPTSAHSSRPSSAQSNRSESSGLNNVVKPRPKVNPFGDAKPREVLLEEQGKDWRKMDLELEHRRVDRPETEEEKMLKEEIEELRKKLEKESVAPEIKESDQEPGSNNNHNDLPEIIRGKEKDLEILTRELDDKVRFRQKPVERPGSGAGRTGTYSERTHSRAGSIDETRSFESTERPRSRGAVDAWVRPANEQRRNFQGTKERGFFSNRSSSREGW

Columns and labels:
[1] = target: T1, SMG7-YFP (Arabidopsis thaliana); assay: FRET or BRET; FLIM-FRET, YFP on SMG7 as donor and TagRFP on eIF4A as acceptor, transiently expressed in N. tabacum leaf epidermal cells; shortening of the YFP fluorescence lifetime
[2] = target: T2, YFP-SMG7^(K77E R185E) (Arabidopsis thaliana); assay: as above
[3] = target: eIF4A1-YFP (Arabidopsis thaliana) (UniProt P41376); assay: co-IP; GFP-Trap Magnetic Agarose on extracts of leaves and inflorescences of SMG7-MYC, eIF4A1-YFP and SMG7-MYC eIF4A1-YFP plants; 50 mM Tris-HCl pH 7.5, 150 mM NaCl, 0.1% Nonidet P-40, 10% glycerol, 4 °C; blots with anti-MYC and anti-GFP
[4] = target: T3, nYFP-SMG7 (Arabidopsis thaliana); assay: split reporter; BiFC in transfected Arabidopsis mesophyll protoplasts, nYFP on SMG7 and cYFP on the partner, imaged by confocal microscopy after 16 h

| Molecule | binding [1] | binding [2] | also measured |
| --- | --- | --- | --- |
| eIF4A1-TagRFP (from UniProt P41376 1-412) | binds | no binding | – |
| eIF4A1^(T145A S146A) (from UniProt P41376 1-412) | no binding | – | – |
| eIF4A1^S146A (from UniProt P41376 1-412) | binds | – | – |
| eIF4A2-TagRFP (from UniProt P41377 1-412) | binds | no binding | – |
| B1 | – | – | binding [3]: binds |
| B2 | – | – | binding [4]: no binding |
